No constants are given. Whether binding was seen depends on the method and setting. Some binding calls cover weakened binding; strength is not graded here.
Key:
mCherry-C/EBPα-p30 = mCherry-C/EBPα-p30 (UniProt P49715); assay: native gel or EMSA; lysates of co-transfected HEK 293 T cells in non-denaturing lysis buffer without SDS; 8% native PAGE, Tris-glycine running buffer pH 8.8; western blot
mCherry-LZ = assay: as above

Molecule | binding (mCherry-C/EBPα-p30) | binding (mCherry-LZ)
mCherry-C/EBPα-p30 (from UniProt P49715-1 120-358) | binds | –
TQQKVLELTSDNDRLRKRVEQLSRELDTLRGIFRQL (domain or fragment) [mCherry-LZ] | – | binds

— PMC10616288
